No constants are given. Whether binding was seen depends on the method and setting. In cells and extracts the contact can be indirect. Some binding calls cover weakened binding; strength is not graded here. Where a sequence is shown, tags or fusion partners need not be part of it.

Chains of the proteins cited; added tags and fusions are not shown. Residues count along the entry.
UniProt P30530, residues 26-894: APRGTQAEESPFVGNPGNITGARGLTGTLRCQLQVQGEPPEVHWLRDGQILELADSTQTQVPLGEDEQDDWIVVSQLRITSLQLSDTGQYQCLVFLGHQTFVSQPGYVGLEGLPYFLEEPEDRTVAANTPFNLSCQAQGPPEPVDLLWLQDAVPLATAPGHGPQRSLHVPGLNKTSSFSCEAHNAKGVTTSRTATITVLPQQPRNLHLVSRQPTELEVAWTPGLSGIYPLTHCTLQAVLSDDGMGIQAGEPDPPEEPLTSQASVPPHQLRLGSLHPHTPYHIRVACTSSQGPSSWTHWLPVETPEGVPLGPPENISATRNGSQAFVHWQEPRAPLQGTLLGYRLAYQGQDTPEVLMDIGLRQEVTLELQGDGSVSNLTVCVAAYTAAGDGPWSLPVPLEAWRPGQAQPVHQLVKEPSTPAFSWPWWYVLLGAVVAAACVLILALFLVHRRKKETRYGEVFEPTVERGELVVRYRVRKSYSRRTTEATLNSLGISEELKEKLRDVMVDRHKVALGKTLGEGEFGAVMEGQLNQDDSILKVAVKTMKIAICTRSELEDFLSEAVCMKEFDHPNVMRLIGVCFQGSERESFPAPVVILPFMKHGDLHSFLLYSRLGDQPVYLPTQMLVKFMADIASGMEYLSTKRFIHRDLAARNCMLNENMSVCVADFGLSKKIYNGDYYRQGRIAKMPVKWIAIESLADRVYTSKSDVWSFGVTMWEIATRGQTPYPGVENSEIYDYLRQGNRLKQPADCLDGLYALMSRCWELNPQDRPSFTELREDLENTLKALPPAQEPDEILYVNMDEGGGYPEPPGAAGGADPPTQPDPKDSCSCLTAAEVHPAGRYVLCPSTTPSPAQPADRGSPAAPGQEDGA
UniProt P08581, residues 25-1390: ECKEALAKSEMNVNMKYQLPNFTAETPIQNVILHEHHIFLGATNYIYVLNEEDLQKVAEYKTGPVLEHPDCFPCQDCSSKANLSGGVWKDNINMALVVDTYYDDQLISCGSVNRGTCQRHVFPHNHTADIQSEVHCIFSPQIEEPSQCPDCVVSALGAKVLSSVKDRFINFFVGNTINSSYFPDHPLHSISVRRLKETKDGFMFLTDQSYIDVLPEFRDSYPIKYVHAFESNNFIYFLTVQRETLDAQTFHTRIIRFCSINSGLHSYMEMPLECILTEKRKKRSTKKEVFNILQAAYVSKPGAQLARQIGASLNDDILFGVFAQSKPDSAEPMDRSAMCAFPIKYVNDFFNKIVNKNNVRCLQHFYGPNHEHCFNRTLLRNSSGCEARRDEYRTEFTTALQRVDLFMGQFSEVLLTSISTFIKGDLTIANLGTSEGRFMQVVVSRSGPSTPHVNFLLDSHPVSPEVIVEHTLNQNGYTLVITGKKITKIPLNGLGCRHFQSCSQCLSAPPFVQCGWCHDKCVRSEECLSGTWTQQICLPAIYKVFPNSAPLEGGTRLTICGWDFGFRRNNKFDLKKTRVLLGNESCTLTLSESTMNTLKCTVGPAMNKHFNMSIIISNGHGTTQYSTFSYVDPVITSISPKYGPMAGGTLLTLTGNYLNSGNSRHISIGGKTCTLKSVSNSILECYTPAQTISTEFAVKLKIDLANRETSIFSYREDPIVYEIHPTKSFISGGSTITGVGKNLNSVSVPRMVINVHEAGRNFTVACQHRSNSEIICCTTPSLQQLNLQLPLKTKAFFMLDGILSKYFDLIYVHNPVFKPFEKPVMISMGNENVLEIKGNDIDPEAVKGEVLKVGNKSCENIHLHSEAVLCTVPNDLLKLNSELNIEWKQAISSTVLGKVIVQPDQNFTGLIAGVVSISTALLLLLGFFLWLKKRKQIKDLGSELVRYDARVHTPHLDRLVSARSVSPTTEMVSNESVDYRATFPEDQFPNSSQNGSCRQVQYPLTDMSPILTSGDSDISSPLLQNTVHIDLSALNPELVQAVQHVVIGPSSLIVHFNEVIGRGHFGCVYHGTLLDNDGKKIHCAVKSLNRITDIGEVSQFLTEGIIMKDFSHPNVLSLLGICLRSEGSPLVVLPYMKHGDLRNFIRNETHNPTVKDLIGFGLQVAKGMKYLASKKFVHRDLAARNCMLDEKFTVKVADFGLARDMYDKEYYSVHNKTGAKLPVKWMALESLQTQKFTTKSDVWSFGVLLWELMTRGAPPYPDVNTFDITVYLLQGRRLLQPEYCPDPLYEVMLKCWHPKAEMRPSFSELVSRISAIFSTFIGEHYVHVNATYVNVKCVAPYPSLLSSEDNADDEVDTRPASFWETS

Drawing on paper doi:10.1101/2024.03.03.583230, this text covers binding for three molecules.

The target of assay [1] is T1, Flag-labeled PFKP (Phosphofructokinase, Platelet Type), 3x Flag tag (human) (UniProt Q01813).
T1 sequence: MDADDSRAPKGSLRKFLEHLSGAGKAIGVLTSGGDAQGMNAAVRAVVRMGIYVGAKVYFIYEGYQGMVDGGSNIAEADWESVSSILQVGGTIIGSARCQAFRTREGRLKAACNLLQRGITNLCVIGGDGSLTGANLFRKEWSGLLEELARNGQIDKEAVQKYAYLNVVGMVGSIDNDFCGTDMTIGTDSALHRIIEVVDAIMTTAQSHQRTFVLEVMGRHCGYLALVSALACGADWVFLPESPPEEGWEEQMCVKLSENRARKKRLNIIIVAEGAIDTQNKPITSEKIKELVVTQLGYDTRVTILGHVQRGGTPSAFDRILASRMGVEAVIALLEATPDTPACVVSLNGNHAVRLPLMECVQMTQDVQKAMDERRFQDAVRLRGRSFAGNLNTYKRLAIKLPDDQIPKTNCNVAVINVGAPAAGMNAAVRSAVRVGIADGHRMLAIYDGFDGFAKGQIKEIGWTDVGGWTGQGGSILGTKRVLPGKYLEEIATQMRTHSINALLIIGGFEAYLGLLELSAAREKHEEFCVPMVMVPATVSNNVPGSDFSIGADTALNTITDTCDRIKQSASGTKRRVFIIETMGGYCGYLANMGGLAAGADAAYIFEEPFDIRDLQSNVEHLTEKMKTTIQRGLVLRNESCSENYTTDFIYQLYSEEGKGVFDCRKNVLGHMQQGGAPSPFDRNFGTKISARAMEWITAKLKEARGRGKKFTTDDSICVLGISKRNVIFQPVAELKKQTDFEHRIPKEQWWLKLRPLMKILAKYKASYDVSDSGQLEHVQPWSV
As to the kind of experiment: co-IP.

Assay [2] concerns the target AXL (AXL Receptor Tyrosine Kinase, Anexelekto; tyrosine-protein kinase receptor UFO) (human (endogenous in H1299)) (UniProt P30530). As to the kind of experiment: co-IP.

As for “AXL (AXL Receptor Tyrosine Kinase, Anexelekto; tyrosine-protein kinase receptor UFO) (from UniProt P30530 26-894)”, in assay [1], the binding result is listed as “binds”.

Take “MET (MET proto-oncogene, Receptor Tyrosine Kinase) (from UniProt P08581 25-1390)”: in assay [1], the binding result is listed as “no binding”.

B1: Flag-labeled PFKP (Phosphofructokinase, Platelet Type), 3x Flag tag (enzyme, UniProt Q01813 1-784)
chain: MDADDSRAPKGSLRKFLEHLSGAGKAIGVLTSGGDAQGMNAAVRAVVRMGIYVGAKVYFIYEGYQGMVDGGSNIAEADWESVSSILQVGGTIIGSARCQAFRTREGRLKAACNLLQRGITNLCVIGGDGSLTGANLFRKEWSGLLEELARNGQIDKEAVQKYAYLNVVGMVGSIDNDFCGTDMTIGTDSALHRIIEVVDAIMTTAQSHQRTFVLEVMGRHCGYLALVSALACGADWVFLPESPPEEGWEEQMCVKLSENRARKKRLNIIIVAEGAIDTQNKPITSEKIKELVVTQLGYDTRVTILGHVQRGGTPSAFDRILASRMGVEAVIALLEATPDTPACVVSLNGNHAVRLPLMECVQMTQDVQKAMDERRFQDAVRLRGRSFAGNLNTYKRLAIKLPDDQIPKTNCNVAVINVGAPAAGMNAAVRSAVRVGIADGHRMLAIYDGFDGFAKGQIKEIGWTDVGGWTGQGGSILGTKRVLPGKYLEEIATQMRTHSINALLIIGGFEAYLGLLELSAAREKHEEFCVPMVMVPATVSNNVPGSDFSIGADTALNTITDTCDRIKQSASGTKRRVFIIETMGGYCGYLANMGGLAAGADAAYIFEEPFDIRDLQSNVEHLTEKMKTTIQRGLVLRNESCSENYTTDFIYQLYSEEGKGVFDCRKNVLGHMQQGGAPSPFDRNFGTKISARAMEWITAKLKEARGRGKKFTTDDSICVLGISKRNVIFQPVAELKKQTDFEHRIPKEQWWLKLRPLMKILAKYKASYDVSDSGQLEHVQPWSV
Consider B1, for which the binding result in assay [2] was “binds”.
